Results are given in words; binding and its absence hold for the method and conditions named. Binding seen in cells or lysates may run through a third protein. Some entries that bind do so weakly or less than the wild type. Sequences can lack the tags named with a protein.
Target: T1, Flag-tagged SIRT4, transfected into HEK293T cells (UniProt Q8R216)
T1 sequence: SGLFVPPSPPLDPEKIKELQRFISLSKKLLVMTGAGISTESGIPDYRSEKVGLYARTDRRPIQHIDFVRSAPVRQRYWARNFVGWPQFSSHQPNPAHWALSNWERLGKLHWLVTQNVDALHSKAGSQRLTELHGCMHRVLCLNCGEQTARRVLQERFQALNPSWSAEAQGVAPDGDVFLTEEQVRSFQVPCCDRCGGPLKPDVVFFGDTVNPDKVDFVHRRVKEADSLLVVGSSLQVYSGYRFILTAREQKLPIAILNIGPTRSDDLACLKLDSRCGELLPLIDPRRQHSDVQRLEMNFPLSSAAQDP
Assay: co-IP; Flag-tagged SIRT4 and HA-tagged PRDX3 plasmids cotransfected into HEK293T cells; IP lysis buffer, primary antibody and protein A+G agarose beads overnight at 4°C, immunoblot

binding: binds
B1: HA-tagged PRDX3, transfected into HEK293T cells (protein, UniProt P20108 63-257)
chain: TPAVTQHAPYFKGTAVVNGEFKELSLDDFKGKYLVLFFYPLDFTFVCPTEIVAFSDKANEFHDVNCEVVAVSVDSHFSHLAWINTPRKNGGLGHMNITLLSDITKQISRDYGVLLESAGIALRGLFIIDPNGVVKHLSVNDLPVGRSVEETLRLVKAFQFVETHGEVCPANWTPESPTIKPSPTASKEYFEKVHQ

Reference: publication PMC12320503
